For at least one compound, name, drawing or mass did not settle the structure.
Tests used:
St. Aereus = assay: Antimicrobial testing by agar dilution, St. Aereus; format: cell-based, Staphylococcus aureus
Description: (§1) The antimicrobial properties of the 5-(4-methoxyphenyl)-1-hexyl-2-(4-nitrophenyl)-4-phenyl-1H-imidazole was studied by the method of agar dilution. Test solutions of each compound was prepared in concentration of 1% using dimethylformamide as a solvent then they are diluted in physiological solution to obtain the final experimental dilutions 1:100, 1:200, 1:400, 1:800. The effect of these substances are compared with furacillin in a controllable study. The testing microbes used were gram positive bacteria St. Aereus, gram negative bacteria E. Coli, Ps. aeruginosa and Candida albicans fungi were taken. The experiments used for this survey were meat-pentonlu agar (EPA) for cultivation of bacteria and Saburo environment for fungi. Each experiment used 1 ml of test solution on each plate 500 min. Add 2 drops of emulsified with microbes feel. All experimental samples were taken from the agar after 10, 20, 40, 60 minutes in the environment on the basis of Patrk planted. Bacteria were cultivated at a temperature of 37° C. for 1 day and the mushroom was kept in a thermostat for […] at a temperature of 28° C. in the. Then results were checked.

E. Coli = assay: Antimicrobial testing by agar dilution, E. Coli; format: cell-based, Escherichia coli
Description: as §1

Ps. aeruginosa = assay: Antimicrobial testing by agar dilution, Ps. aeruginosa; format: cell-based, Pseudomonas aeruginosa
Description: as §1

Candida albicans = assay: Antimicrobial testing by agar dilution, Candida albicans; format: cell-based
Description: as §1

[1] = exposure time 10 min, dilution rate 1:100
[2] = exposure time 10 min, dilution rate 1:200
[3] = exposure time 10 min, dilution rate 1:400
[4] = exposure time 10 min, dilution rate 1:800
[5] = exposure time 20 min, dilution rate 1:100
[6] = exposure time 20 min, dilution rate 1:200
[7] = exposure time 20 min, dilution rate 1:400
[8] = exposure time 20 min, dilution rate 1:800
[9] = exposure time 40 min, dilution rate 1:100
[10] = exposure time 40 min, dilution rate 1:200
[11] = exposure time 40 min, dilution rate 1:400
[12] = exposure time 40 min, dilution rate 1:800
[13] = exposure time 60 min, dilution rate 1:100
[14] = exposure time 60 min, dilution rate 1:200
[15] = exposure time 60 min, dilution rate 1:400
[16] = exposure time 60 min, dilution rate 1:800

**Q.** Which antimicrobial activity (St. Aereus; [1]) does the source give for `NC(=O)N/N=C/c1ccc([N+](=O)[O-])o1` [Furacilin] here?
**A.** −

**Q.** And the antimicrobial activity (St. Aereus; [2])?
**A.** +

**Q.** What about the antimicrobial activity (St. Aereus; [3]) of the same compound?
**A.** +

**Q.** And the antimicrobial activity (St. Aereus; [4])?
**A.** +

**Q.** What about the antimicrobial activity (St. Aereus; [5]) of the same compound?
**A.** −

**Q.** And the antimicrobial activity (St. Aereus; [6])?
**A.** +

**Q.** What about the antimicrobial activity (St. Aereus; [7]) of the same compound?
**A.** +

**Q.** And the antimicrobial activity (St. Aereus; [8])?
**A.** +

**Q.** What about the antimicrobial activity (St. Aereus; [9]) of the same compound?
**A.** −

**Q.** What about the antimicrobial activity (St. Aereus; [10]) of the same compound?
**A.** +

**Q.** What about the antimicrobial activity (St. Aereus; [11]) of the same compound?
**A.** +

**Q.** And the antimicrobial activity (St. Aereus; [12])?
**A.** +

**Q.** What about the antimicrobial activity (St. Aereus; [13]) of the same compound?
**A.** −

**Q.** What about the antimicrobial activity (St. Aereus; [14]) of the same compound?
**A.** +

**Q.** And the antimicrobial activity (St. Aereus; [15])?
**A.** +

**Q.** What about the antimicrobial activity (St. Aereus; [16]) of the same compound?
**A.** +

**Q.** And the antimicrobial activity (E. Coli; [1])?
**A.** −

**Q.** And the antimicrobial activity (E. Coli; [2])?
**A.** +

**Q.** And the antimicrobial activity (E. Coli; [3])?
**A.** +

**Q.** And the antimicrobial activity (E. Coli; [4])?
**A.** +

**Q.** And the antimicrobial activity (E. Coli; [5])?
**A.** −

**Q.** And the antimicrobial activity (E. Coli; [6])?
**A.** +

**Q.** And the antimicrobial activity (E. Coli; [7])?
**A.** +

**Q.** What about the antimicrobial activity (E. Coli; [8]) of the same compound?
**A.** +

**Q.** And the antimicrobial activity (E. Coli; [9])?
**A.** −

**Q.** And the antimicrobial activity (E. Coli; [10])?
**A.** +

**Q.** What about the antimicrobial activity (E. Coli; [11]) of the same compound?
**A.** +

**Q.** What about the antimicrobial activity (E. Coli; [12]) of the same compound?
**A.** +

**Q.** What about the antimicrobial activity (E. Coli; [13]) of the same compound?
**A.** −

**Q.** What about the antimicrobial activity (E. Coli; [14]) of the same compound?
**A.** +

**Q.** What about the antimicrobial activity (E. Coli; [15]) of the same compound?
**A.** +

**Q.** What about the antimicrobial activity (E. Coli; [16]) of the same compound?
**A.** +

**Q.** What about the antimicrobial activity (Ps. aeruginosa; [1]) of the same compound?
**A.** +

**Q.** And the antimicrobial activity (Ps. aeruginosa; [2])?
**A.** +

**Q.** And the antimicrobial activity (Ps. aeruginosa; [3])?
**A.** +

**Q.** What about the antimicrobial activity (Ps. aeruginosa; [4]) of the same compound?
**A.** +

**Q.** What about the antimicrobial activity (Ps. aeruginosa; [5]) of the same compound?
**A.** +

**Q.** And the antimicrobial activity (Ps. aeruginosa; [6])?
**A.** +

**Q.** What about the antimicrobial activity (Ps. aeruginosa; [7]) of the same compound?
**A.** +

**Q.** And the antimicrobial activity (Ps. aeruginosa; [8])?
**A.** +

**Q.** And the antimicrobial activity (Ps. aeruginosa; [9])?
**A.** +

**Q.** What about the antimicrobial activity (Ps. aeruginosa; [10]) of the same compound?
**A.** +

**Q.** And the antimicrobial activity (Ps. aeruginosa; [11])?
**A.** +

**Q.** And the antimicrobial activity (Ps. aeruginosa; [12])?
**A.** +

**Q.** And the antimicrobial activity (Ps. aeruginosa; [13])?
**A.** +

**Q.** And the antimicrobial activity (Ps. aeruginosa; [14])?
**A.** +

**Q.** What about the antimicrobial activity (Ps. aeruginosa; [15]) of the same compound?
**A.** +

**Q.** What about the antimicrobial activity (Ps. aeruginosa; [16]) of the same compound?
**A.** +

**Q.** And the antimicrobial activity (Candida albicans; [1])?
**A.** −

**Q.** And the antimicrobial activity (Candida albicans; [2])?
**A.** +

**Q.** And the antimicrobial activity (Candida albicans; [3])?
**A.** +

**Q.** And the antimicrobial activity (Candida albicans; [4])?
**A.** +

**Q.** What about the antimicrobial activity (Candida albicans; [5]) of the same compound?
**A.** −

**Q.** What about the antimicrobial activity (Candida albicans; [6]) of the same compound?
**A.** +

**Q.** And the antimicrobial activity (Candida albicans; [7])?
**A.** +

**Q.** What about the antimicrobial activity (Candida albicans; [8]) of the same compound?
**A.** +

**Q.** What about the antimicrobial activity (Candida albicans; [9]) of the same compound?
**A.** +

**Q.** What about the antimicrobial activity (Candida albicans; [10]) of the same compound?
**A.** +

**Q.** What about the antimicrobial activity (Candida albicans; [11]) of the same compound?
**A.** +

**Q.** And the antimicrobial activity (Candida albicans; [12])?
**A.** +

**Q.** And the antimicrobial activity (Candida albicans; [13])?
**A.** +

**Q.** What about the antimicrobial activity (Candida albicans; [14]) of the same compound?
**A.** +

**Q.** And the antimicrobial activity (Candida albicans; [15])?
**A.** +

**Q.** And the antimicrobial activity (Candida albicans; [16])?
**A.** +

From patent US12006296B1, “5-(4-methoxyphenyl)-1-hexyl-2-(4-nitrophenyl)-4-phenyl-1H-imidazoleas an antimicrobial compound” (KING FAISAL UNIVERSITY, priority 2023, dated 2024)
